Laboratory results taken from PubChem BioAssay AID485298 (National Center for Advancing Translational Sciences (NCATS), 2010).
About 740 (0.23%) of roughly 320,000 compounds were called active. The shares of active, inactive and inconclusive entries below differ from those in the screen. The call rests on the fitted dose curve; in most records, active means well fitted activation curve with a large enough effect; inconclusive means small, poorly fitted or top-dose-only effect; inactive means no such curve, though single readings can be large or run the other way. Potencies beside an inconclusive call are fits to weak or partial responses and may not hold up.

Assay: qHTS Assay for Small Molecule Inhibitors of Mitochondrial Division or Activators of Mitochondrial Fusion; further: nearly all actives have a fitted effect of over 45% in size; on growth rescue (activation): % of control where 0% means no effect
Conditions: S. cerevisiae fusion-defective mutant growth rescue, CellTiterGlo 48 h; growth rescue (activation): at 46.1 µM (top of the series) unless noted
Summary of the method: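 Temperature-sensitive fusion-defective S. cerevisiae (e.g. fzo1-1, mgm1-5) were grown with compound in YPEG medium (3% ethanol, 3% glycerol) for 48 hours at 37C. Growth rescue was measured as viability by CellTiterGlo luminescence after 10 minutes at ambient.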
Potency means the concentration at half of the fitted maximal effect.

Row | Compound | Potency | growth rescue (activation)
1 | NC(=O)CN1C(=O)C2C3C=CC(C3)C2C1=O (stereo not drawn) | inconclusive: 3.98 µM [activator, full curve, poor fit] | 
2 | Cc1ccnc(NC(c2ccccc2O)c2oc(CO)cc(=O)c2O)c1 (stereo not drawn) | inconclusive: 14.1 µM [activator, partial curve] | 
3 | CCOC(=O)c1[nH]c(C)c(C(=O)OCC(=O)N2CCCCC2C)c1C (stereo not drawn) | inconclusive: 6.31 µM [activator, partial curve, poor fit] | 
4 | CCOc1ccc(Nc2ccc(C(=O)O)cc2[N+](=O)[O-])cc1 | inconclusive: 20 µM [activator, partial curve] | 
5 | Cc1ccccc1C(=O)Nc1cccc(NC(=S)NC(=O)c2cccs2)c1 |  | inactive: -4.93%
6 | Cc1cccc(N2C(=O)c3cccc(Oc4ccc(Cl)cc4)c3C2=O)c1 | inconclusive: 8.91 µM [activator, partial curve] | 
7 | O=C(O)[C@@H]1C[C@H](C(=O)O)N1 | inconclusive: 20.6 µM [activator, single point] | 
8 | CCC(C)N1C(=O)S/C(=C/c2ccc(N3CCOCC3)cc2C)C1=O (stereo not drawn) | inconclusive: 17.8 µM [activator, single point] | 
9 | CCN(CC)C(=O)CSc1nnc2nnc3cc(Cl)ccc3n12 | inconclusive: 17.8 µM [activator, partial curve] | 
10 | CCCN1CNC(=S)N(c2ccc(C)cc2C)C1 |  | inactive: -3.84%
11 | Oc1c(Br)cc(Br)cc1CNc1ccc(F)cc1 |  | inactive: -0.161%
12 | COCCNC(=S)c1ccc(Br)cc1 |  | inactive: -3.09%
13 | COc1ccc(-c2nnc(SCC(=O)Nc3ccc(Cl)cc3)n2C)cc1 |  | inactive: -2.09%
14 | O=S(=O)(Nc1nc2c(s1)CCCC2)c1ccc(Br)cc1 | inconclusive: 17.8 µM [activator, single point] | 
15 | Cc1ccccc1Cn1cc(NC(=O)c2cc3nc(-c4ccco4)cc(C(F)(F)F)n3n2)cn1 |  | inactive: 0.549%
16 | CN(C)C(=O)/C=C\c1cn(-c2ccccc2)nc1-c1ccc2c(c1)OCCO2 | active: 17.8 µM | 
17 | CCc1cc(C(c2ccccn2)N2CCN(C)CC2)c(NC(=O)c2ccccc2)s1 (stereo not drawn) |  | inactive: 0.713%
18 | O=C(CNS(=O)(=O)c1ccc2ccccc2c1)OCC(=O)c1ccc(Br)s1 | inconclusive: 35.5 µM [activator, single point] | 
19 | O=C(Nc1nccs1)c1ccc(COc2c(F)c(F)cc(F)c2F)o1 |  | inactive: -2.1%
20 | c1ccc(-c2cc(-c3nnc4n3N=C(c3ccc5ccccc5c3)CS4)[nH]n2)cc1 | inconclusive: 6.31 µM [activator, partial curve] | 
21 | O=C(NCc1ccc2c(c1)OCO2)c1ccc(Br)o1 | inconclusive: 22.4 µM [activator, single point] | 
22 | Clc1ccccc1CSc1nncn1NC/C=C/c1ccccc1 | active: 22.4 µM | 
23 | Cc1ccc(CNC(=O)c2ccc3c(c2)NC(=O)CS3)cc1 | inconclusive: 12.6 µM [activator, single point] | 
24 | CCS(=O)(=O)c1ncc(Cl)c(C(=O)Nc2ccccc2OC)n1 |  | inactive: -9.33%
25 | Cc1c(F)cccc1NS(=O)(=O)c1ccc2c(c1)c(=O)n(C)c(=O)n2C |  | inactive: -20.4%

Row | Compound | Potency | growth rescue (activation)
26 | COCCN1C(=O)/C(=C/c2ccc(OCc3ccc(C(=O)O)cc3)c(OC)c2)SC1=Nc1ccccc1 | inconclusive: 5.62 µM [activator, single point] | 
27 | O=C(Nc1ccc(Cl)cc1Cl)c1ccc2c(c1)OCCO2 |  | inactive: 12.1%
28 | CCCc1cc(C(=O)Cc2ccc(F)cc2)c(O)cc1O | inconclusive: 15.8 µM [activator, single point] | 
29 | Cc1ccc(-c2nc3cccnc3s2)cc1NS(=O)(=O)c1ccc2c(c1)CCCC2 | inconclusive: 11.2 µM [activator, partial curve] | 
30 | O=C1c2cnc3nc(SCc4ccc(Cl)cc4)nn3c2CC2c3ccccc3CCN12 (stereo not drawn) | inconclusive: 3.98 µM [activator, full curve] | 
31 | CCOC(=O)c1[nH]c2ccc(OC)cc2c1NC(C)=O |  | inactive: -5.04%
32 | O=C(NCc1ccc2c(c1)OCO2)c1ccc2c(c1)N(Cc1c(F)cccc1Cl)C(=O)CS2 |  | inactive: -4.57%
33 | CC1=CC(C)[C@@H]2COC(c3ccc(O)cc3)[C@H]1C2C (stereo partly drawn) | inconclusive: 11.2 µM [activator, partial curve] | 
34 | COc1ccc(C)cc1NC(=O)CN1c2cccc3cccc(c23)S1(=O)=O | inconclusive: 25.1 µM [activator, single point] | 
35 | N#CC1=C(N)OC2=C(CCc3ccccc32)C1c1ccccc1 (stereo not drawn) | inconclusive: 10 µM [activator, partial curve] | 
36 | Cc1ccc(C(=O)c2ccc(O)cc2)cc1C | inconclusive: 22.4 µM [activator, single point] | 
37 | N#C/C(=N\Nc1cccc(C(F)(F)F)c1)C(=O)c1csc(-c2cccnc2)n1 | inconclusive: 11.2 µM [activator, partial curve] | 
38 | CN(C)/N=C/c1ccc(OS(=O)(=O)c2ccccc2)cc1 |  | inactive: 0.82%
39 | Cc1ccc(OCCOCCOc2cccc3cccnc23)c(Br)c1 | inconclusive: 28.2 µM [activator, single point] | 
40 | CC1=NN(/C(=N\c2nnc(C)s2)Nc2ccccc2)[C@H](c2cccc3ccccc23)S1 | inconclusive: 35.5 µM [activator, single point] | 
41 | COc1cc(NC(=O)c2ccc(COc3ccccc3Br)o2)cc(OC)c1OC | inconclusive: 15.8 µM [activator, single point] | 
42 | CCOc1ccccc1NC(=O)c1ccc(NC(=O)c2ccco2)cc1 | inconclusive: 20 µM [activator, single point] | 
43 | CC1CCCC(C)N1CC(O)COc1ccc(Cl)cc1 (stereo not drawn) | inconclusive: 22.4 µM [activator, partial curve, poor fit] | 
44 | Cc1ccc(-n2cc(CN3CCNC(=O)CC3)c(-c3cccc(C)c3)n2)cc1 |  | inactive: 18.9%
45 | Cc1ccc(NC(=O)Nc2nnc(-c3ccncc3)s2)cc1 | inconclusive: 10 µM [activator, partial curve] | 
46 | O=C(Cc1ccc(Cl)cc1)Nc1ccccc1C(=O)Nc1ccc(C(=O)O)cc1 | inconclusive: 22.4 µM [activator, single point] | 
47 | Nc1ccc(Cl)c(-c2nc3ncccc3o2)c1 |  | inactive: 1.96%
48 | COc1ccc(OC)c(-c2csc(NC(=O)CSc3ccc(Br)cc3)n2)c1 | inconclusive: 14.1 µM [activator, single point] | 
49 | c1ccc(COc2cccc(CN3CCN(c4ccccn4)CC3)c2)cc1 | inconclusive: 11.2 µM [activator, partial curve] | 
50 | Cn1c(SCC(=O)N2c3ccccc3Sc3ccccc32)nc2ccccc21 | inconclusive: 20 µM [activator, single point] | 

Row | Compound | Potency | growth rescue (activation)
51 | CCCCNC(=S)NC(=O)c1ccccc1Br |  | inactive: 4.26%
52 | CCOc1ccccc1N(C(=O)c1ccccc1Cl)C1=NC(C)(C)CS1 |  | inactive: 11%
53 | COc1ccccc1N(CC(=O)NCc1ccccc1)C(=O)CCC(=O)Nc1nccs1 | inconclusive: 3.55 µM [activator, partial curve] | 
54 | O=C(Cc1cccs1)NCCSc1c(-c2ccc(Cl)cc2)[nH]c2ccccc12 | inconclusive: 10 µM [activator, partial curve] | 
55 | O=C(COC(=O)c1cc(Cl)ccc1[N+](=O)[O-])NCc1ccc(Cl)cc1Cl | inconclusive: 28.2 µM [activator, single point] | 
56 | O=C(CC1C(=O)N(c2ccccc2)C(=S)N1c1ccccc1)c1ccccc1 (stereo not drawn) | inconclusive: 17.8 µM [activator, single point] | 
57 | COC(=O)c1cc(C#N)c(SCc2ccccc2)nc1C |  | inactive: 6.18%
58 | CCC(O)(CC)C(=O)NN(C(=O)CCl)c1ccccc1 |  | inactive: -7.49%
59 | COc1ccc([C@H]2CC(=O)C=C(c3cc4ccccc4s3)C2)cc1 | inconclusive: 17.8 µM [activator, partial curve] | 
60 | CSCc1nnc(NC(=O)c2ccc(S(=O)(=O)N(C)C)cc2)o1 |  | inactive: -1.9%
61 | CC(C)(O)c1cc2ccc(C#Cc3ccsc3)cc2c(=O)o1 | inconclusive: 31.6 µM [activator, single point] | 
62 | CC1CCCN(c2ccc(C(=O)NCc3ccco3)cc2[N+](=O)[O-])C1 (stereo not drawn) | inconclusive: 17.8 µM [activator, partial curve] | 
63 | CS(=O)(=O)c1ccc(C(=O)Nc2ccc(N3CCCC3)cc2)c(Cl)c1 | inconclusive: 31.6 µM [activator, single point] | 
64 | O=C(NCC1CCCO1)c1ccc(CNS(=O)(=O)c2ccc(F)c(Cl)c2)cc1 (stereo not drawn) |  | inactive: 3.85%
65 | CSCCC(NC(=O)C12CC3CC(CC(C3)C1)C2)C(=O)OCC(=O)c1ccc(C)cc1 (stereo not drawn) |  | inactive: -2.33%
66 | CCOC(=O)C1=C(C)NC2=C(C(=O)c3ccccc32)C1c1ccc(O)cc1 (stereo not drawn) | inconclusive: 12.6 µM [activator, partial curve] | 
67 | COC(CNC(=O)c1cnn2c(C)c(Cc3ccccc3)c(C)nc12)OC |  | inactive: -3.66%
68 | CCC1Nc2ncnc(N3CCN(c4ccccc4)CC3)c2N(Cc2ccc(C)cc2)C1=O (stereo not drawn) | inconclusive: 14.1 µM [activator, single point] | 
69 | C/C(=N\NC(=O)c1ccc(-c2ccccc2)cc1)C1C(=O)c2ccccc2C1=O |  | inactive: -0.669%
70 | O=S(=O)(c1ccc2ccccc2c1)N1CCCCCC1 | inconclusive: 22.4 µM [activator, single point] | 
71 | CCn1c2ccccc2c2cc(/C=N/n3c(C)nnc3C)ccc21 | inconclusive: 20 µM [activator, single point] | 
72 | NC(=O)C1Cc2ccccc2CN1S(=O)(=O)c1ccc(Cl)s1 (stereo not drawn) |  | inactive: 11.2%
73 | Cc1cccc(-c2cc3nc4c(c(N5CCCC(O)C5)n3n2)CCC4)c1 (stereo not drawn) | inconclusive: 14.1 µM [activator, partial curve] | 

Quoted at random: two records from the list, in no set order.
Row | Compound | Potency | growth rescue (activation)
68 | CCC1Nc2ncnc(N3CCN(c4ccccc4)CC3)c2N(Cc2ccc(C)cc2)C1=O (stereo not drawn) | inconclusive: 14.1 µM [activator, single point] | 
64 | O=C(NCC1CCCO1)c1ccc(CNS(=O)(=O)c2ccc(F)c(Cl)c2)cc1 (stereo not drawn) |  | inactive: 3.85%
